Results from patent US10954277B2, “Materials and methods for treating cancer” (Mayo Foundation for Medical Education and Research, priority 2016, dated 2021).

System: LNCaP cells
Assay: Immunofluorescent cytochemistry of cellular localization of FOXO1-IQBP peptides
Type: cell-based, human
Conditions: LNCaP cells transfected with HA-tagged peptide plasmids

## NDDFDNWSTFRPRTSSNASTISGRLSPIMT (HA-tagged FOXO1-derived IQGAP1-binding peptide) [S319]
  cellular localization of the peptide: ubiquitously expressed in both cytoplasm and nucleus
